These results are taken from patent US7781187B2, “Fluorescent dyes” (Corning Incorporated, priority 2005, dated 2010).

This series in a line: Coefficient of Variance of background signal, buffer plus dye only, microplate reader. Particulars: optimal excitation/emission wavelengths.

As for `CN1/C(=C/C=C/c2cc[n+](CCC[N+](C)(C)C)c3ccccc23)Sc2ccccc21.[I-].[I-]` [TO-PRO-3 ™, reference compound], the “Coefficient of Variance 100 μL/well” value is reported as 115% and the “Coefficient of Variance 200 μL/well” value turned out to be 19%.

Turning to `C[n+]1c(/C=C/c2ccc(OCCOCCOCCOc3ccc(/C=C/c4sc5ccccc5[n+]4C)cc3)cc2)sc2ccccc21` [HE-HE], the “Coefficient of Variance 100 μL/well” value came out at 24% and the “Coefficient of Variance 200 μL/well” value was 13%.

Take `C[n+]1c(/C=C/c2ccc(N(CCO)CCO)cc2)sc2ccccc21` [Dye 95]: the “Coefficient of Variance 100 μL/well” value is on record as 12% and the “Coefficient of Variance 200 μL/well” value is 13%.

For `CN1/C(=C/c2cc[n+](CCC[N+](C)(C)CCC[N+](C)(C)CCC[n+]3ccc(/C=C4\Sc5ccccc5N4C)c4ccccc43)c3ccccc23)Sc2ccccc21.[I-].[I-].[I-].[I-]` [TOTO-1™, reference compound], the “Coefficient of Variance 100 μL/well” value was 84% and the “Coefficient of Variance 200 μL/well” value was found to be 12%.
